Test results as given in paper PMC9972622.
These are yes or no findings as the source states them, for the method shown. Binding seen in cells or lysates may run through a third protein. Some results given as binding are weak or reduced against the parent protein; the word gives no strength.

T1: kinesin super-family protein 4A (KIF4A) (human (endogenous in U2OS)) (UniProt O95239)
T1 sequence: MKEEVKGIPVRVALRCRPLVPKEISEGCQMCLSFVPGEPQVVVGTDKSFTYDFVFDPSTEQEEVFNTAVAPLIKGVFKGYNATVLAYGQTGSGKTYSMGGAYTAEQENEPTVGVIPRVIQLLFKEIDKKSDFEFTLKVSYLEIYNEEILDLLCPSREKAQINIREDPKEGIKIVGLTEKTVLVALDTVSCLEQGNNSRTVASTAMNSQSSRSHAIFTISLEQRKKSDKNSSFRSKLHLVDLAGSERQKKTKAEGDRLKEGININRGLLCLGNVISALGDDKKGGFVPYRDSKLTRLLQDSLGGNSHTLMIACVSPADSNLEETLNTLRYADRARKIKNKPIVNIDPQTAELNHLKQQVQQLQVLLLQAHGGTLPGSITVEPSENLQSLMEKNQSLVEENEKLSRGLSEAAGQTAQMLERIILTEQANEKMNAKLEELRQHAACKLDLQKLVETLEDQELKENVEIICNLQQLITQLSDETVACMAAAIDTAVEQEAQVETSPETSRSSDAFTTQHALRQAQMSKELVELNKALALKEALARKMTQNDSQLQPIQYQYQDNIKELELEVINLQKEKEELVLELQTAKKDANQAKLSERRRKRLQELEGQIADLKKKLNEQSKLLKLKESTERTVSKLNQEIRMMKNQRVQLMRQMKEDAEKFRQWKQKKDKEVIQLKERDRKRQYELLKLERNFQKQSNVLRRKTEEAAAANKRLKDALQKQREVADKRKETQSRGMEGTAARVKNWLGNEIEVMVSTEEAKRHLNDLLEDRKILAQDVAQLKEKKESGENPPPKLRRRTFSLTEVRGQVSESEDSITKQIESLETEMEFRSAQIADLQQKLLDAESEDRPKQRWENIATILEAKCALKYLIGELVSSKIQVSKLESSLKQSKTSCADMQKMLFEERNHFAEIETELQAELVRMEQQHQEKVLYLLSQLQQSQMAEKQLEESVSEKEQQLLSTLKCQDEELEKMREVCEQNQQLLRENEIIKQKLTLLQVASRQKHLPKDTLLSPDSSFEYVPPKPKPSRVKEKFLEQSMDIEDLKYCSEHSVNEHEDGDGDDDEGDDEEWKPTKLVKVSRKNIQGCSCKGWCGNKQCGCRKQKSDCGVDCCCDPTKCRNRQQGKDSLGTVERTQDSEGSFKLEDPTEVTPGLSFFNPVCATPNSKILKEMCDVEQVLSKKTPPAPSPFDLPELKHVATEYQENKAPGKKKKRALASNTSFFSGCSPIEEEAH

T2: DEP domain 1 protein (DEPDC1) (human (endogenous in U2OS)) (UniProt Q5TB30)
T2 sequence: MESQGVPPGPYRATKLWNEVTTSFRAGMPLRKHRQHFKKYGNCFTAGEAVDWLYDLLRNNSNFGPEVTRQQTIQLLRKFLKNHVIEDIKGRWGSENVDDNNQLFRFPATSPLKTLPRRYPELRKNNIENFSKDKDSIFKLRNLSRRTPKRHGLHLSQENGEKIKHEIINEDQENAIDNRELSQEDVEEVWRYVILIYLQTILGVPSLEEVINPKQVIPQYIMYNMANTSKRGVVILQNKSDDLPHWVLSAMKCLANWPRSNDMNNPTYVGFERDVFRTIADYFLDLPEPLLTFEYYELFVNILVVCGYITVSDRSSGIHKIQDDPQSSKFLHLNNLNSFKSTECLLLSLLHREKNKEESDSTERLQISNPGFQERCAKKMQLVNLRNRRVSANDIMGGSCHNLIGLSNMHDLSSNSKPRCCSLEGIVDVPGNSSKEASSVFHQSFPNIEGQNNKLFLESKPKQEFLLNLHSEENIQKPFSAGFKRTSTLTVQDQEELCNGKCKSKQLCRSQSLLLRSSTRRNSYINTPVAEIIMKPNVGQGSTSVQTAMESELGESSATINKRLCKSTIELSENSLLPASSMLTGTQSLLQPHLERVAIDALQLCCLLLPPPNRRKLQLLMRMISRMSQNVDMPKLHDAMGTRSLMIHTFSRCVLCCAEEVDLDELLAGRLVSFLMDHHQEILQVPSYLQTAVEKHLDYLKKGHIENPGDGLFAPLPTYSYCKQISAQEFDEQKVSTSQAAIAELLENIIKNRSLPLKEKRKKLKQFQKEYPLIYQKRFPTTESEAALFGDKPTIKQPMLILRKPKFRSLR


Key:
[1] = molecular target: T1, kinesin super-family protein 4A (KIF4A) (human (endogenous in U2OS)); experiment: co-IP; U2OS cell proteins extracted in immunoprecipitation buffer, incubated with anti-DEPDC1 or anti-KIF4A overnight at 4 °C, protein A/G magnetic beads 3 h at 4 °C, western blot
[2] = molecular target: T2, DEP domain 1 protein (DEPDC1) (human (endogenous in U2OS)); experiment: as above

| binding [1] | binding [2] | Binder |
| --- | --- | --- |
| binds | – | DEP domain 1 protein (DEPDC1) (protein, UniProt Q5TB30 1-811) MESQGVPPGPYRATKLWNEVTTSFRAGMPLRKHRQHFKKYGNCFTAGEAVDWLYDLLRNNSNFGPEVTRQQTIQLLRKFLKNHVIEDIKGRWGSENVDDNNQLFRFPATSPLKTLPRRYPELRKNNIENFSKDKDSIFKLRNLSRRTPKRHGLHLSQENGEKIKHEIINEDQENAIDNRELSQEDVEEVWRYVILIYLQTILGVPSLEEVINPKQVIPQYIMYNMANTSKRGVVILQNKSDDLPHWVLSAMKCLANWPRSNDMNNPTYVGFERDVFRTIADYFLDLPEPLLTFEYYELFVNILVVCGYITVSDRSSGIHKIQDDPQSSKFLHLNNLNSFKSTECLLLSLLHREKNKEESDSTERLQISNPGFQERCAKKMQLVNLRNRRVSANDIMGGSCHNLIGLSNMHDLSSNSKPRCCSLEGIVDVPGNSSKEASSVFHQSFPNIEGQNNKLFLESKPKQEFLLNLHSEENIQKPFSAGFKRTSTLTVQDQEELCNGKCKSKQLCRSQSLLLRSSTRRNSYINTPVAEIIMKPNVGQGSTSVQTAMESELGESSATINKRLCKSTIELSENSLLPASSMLTGTQSLLQPHLERVAIDALQLCCLLLPPPNRRKLQLLMRMISRMSQNVDMPKLHDAMGTRSLMIHTFSRCVLCCAEEVDLDELLAGRLVSFLMDHHQEILQVPSYLQTAVEKHLDYLKKGHIENPGDGLFAPLPTYSYCKQISAQEFDEQKVSTSQAAIAELLENIIKNRSLPLKEKRKKLKQFQKEYPLIYQKRFPTTESEAALFGDKPTIKQPMLILRKPKFRSLR |
| – | binds | kinesin super-family protein 4A (KIF4A) (protein, UniProt O95239 1-1232) MKEEVKGIPVRVALRCRPLVPKEISEGCQMCLSFVPGEPQVVVGTDKSFTYDFVFDPSTEQEEVFNTAVAPLIKGVFKGYNATVLAYGQTGSGKTYSMGGAYTAEQENEPTVGVIPRVIQLLFKEIDKKSDFEFTLKVSYLEIYNEEILDLLCPSREKAQINIREDPKEGIKIVGLTEKTVLVALDTVSCLEQGNNSRTVASTAMNSQSSRSHAIFTISLEQRKKSDKNSSFRSKLHLVDLAGSERQKKTKAEGDRLKEGININRGLLCLGNVISALGDDKKGGFVPYRDSKLTRLLQDSLGGNSHTLMIACVSPADSNLEETLNTLRYADRARKIKNKPIVNIDPQTAELNHLKQQVQQLQVLLLQAHGGTLPGSITVEPSENLQSLMEKNQSLVEENEKLSRGLSEAAGQTAQMLERIILTEQANEKMNAKLEELRQHAACKLDLQKLVETLEDQELKENVEIICNLQQLITQLSDETVACMAAAIDTAVEQEAQVETSPETSRSSDAFTTQHALRQAQMSKELVELNKALALKEALARKMTQNDSQLQPIQYQYQDNIKELELEVINLQKEKEELVLELQTAKKDANQAKLSERRRKRLQELEGQIADLKKKLNEQSKLLKLKESTERTVSKLNQEIRMMKNQRVQLMRQMKEDAEKFRQWKQKKDKEVIQLKERDRKRQYELLKLERNFQKQSNVLRRKTEEAAAANKRLKDALQKQREVADKRKETQSRGMEGTAARVKNWLGNEIEVMVSTEEAKRHLNDLLEDRKILAQDVAQLKEKKESGENPPPKLRRRTFSLTEVRGQVSESEDSITKQIESLETEMEFRSAQIADLQQKLLDAESEDRPKQRWENIATILEAKCALKYLIGELVSSKIQVSKLESSLKQSKTSCADMQKMLFEERNHFAEIETELQAELVRMEQQHQEKVLYLLSQLQQSQMAEKQLEESVSEKEQQLLSTLKCQDEELEKMREVCEQNQQLLRENEIIKQKLTLLQVASRQKHLPKDTLLSPDSSFEYVPPKPKPSRVKEKFLEQSMDIEDLKYCSEHSVNEHEDGDGDDDEGDDEEWKPTKLVKVSRKNIQGCSCKGWCGNKQCGCRKQKSDCGVDCCCDPTKCRNRQQGKDSLGTVERTQDSEGSFKLEDPTEVTPGLSFFNPVCATPNSKILKEMCDVEQVLSKKTPPAPSPFDLPELKHVATEYQENKAPGKKKKRALASNTSFFSGCSPIEEEAH |
